Here are results for 62 compounds from PubChem BioAssay AID493014 (National Center for Advancing Translational Sciences (NCATS), 2011).

This experiment in a line: qHTS Assay to Find Inhibitors of Chronic Active B-Cell Receptor Signaling. The settings on record: ABC-DLBCL IkBa-CBG/CBR reporter, luminescence ratio (green luciferase fused to IkBa over red control in TMD8 lymphoma cells), 4 h. The method, boiled down: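 Compounds up to 46 uM were incubated four hours with TMD8 cells whose green CBG68 luciferase is fused to IkappaBalpha; red CBR luminescence normalised the signal, and concentration-effect curves were fitted to fusion, red and ratio data.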

[1] abbreviates: measured here: CBR red luminescence, cell number.
Where [2] appears, read: measured here: IkBa-CBG green luminescence.

The structures appear in SMILES notation. Some of the results follow. The main result of the screen is listed elsewhere. These columns were measured beside it and carry no call. Compounds called inactive in the main read-out are mostly missing here. The note in brackets gives the kind of curve behind each potency; many fits are weak.

One may read the AC50 as the concentration giving half of the maximal activity seen. As for `CN(C)CCCn1c(SCC(=O)Nc2nccs2)nnc1-c1ccncc1`, the AC50 under setting [1] was 8.91 µM [falling, partial curve]. For `Oc1cccc(/C=N/N=C/c2cccc(O)c2O)c1O`, under setting [1], the AC50 was 5.62 µM [rising, full curve, poor fit].

With `Cc1ccc(-c2nnc(NCc3nc4ccccc4[nH]3)c3ccccc23)cc1S(=O)(=O)N(C)C`, the AC50 under setting [1] is 20.6 µM [falling, partial curve, poor fit]. Same read-out and setting: under `NC(=O)c1ncn([C@@H]2O[C@H](CO)[C@@H](O)[C@H]2O)n1` stands 32.6 µM [rising, single point]. Same read-out and setting: as for `Cc1ccccc1NC(=O)c1cc([N+](=O)[O-])ccc1NCCN1C(=O)CCC1=O`, the figure is 12.6 µM [rising, single point]; as for `COc1ccc(-c2nc(C)c(C(C)=O)n2O)cc1`, 11.2 µM [falling, partial curve]. Consider `Cc1nnc(NC(=O)CSc2nnc(-c3ccco3)o2)s1`, for which, under setting [1], the AC50 was 10 µM [falling, partial curve]. With `CCN(C(=O)COc1ccc(N(C)S(=O)(=O)c2ccc(NC(C)=O)cc2)cc1)C1CCCCC1`, the AC50 under setting [1] is 14.6 µM [falling, single point]. The same measure, in the same setting: as for `COc1ccc2ccccc2c1/C=N/Nc1cccc(C(=O)O)c1`, the figure is 0.447 µM [falling, full curve, poor fit]. On to `CC(C)(CO)NCc1cccs1`, for which the AC50 under setting [1] was 5.62 µM [falling, full curve]. Take `O=C(NCCCN1CCc2ccccc2C1)Nc1ccc(Br)cc1`: the AC50 under setting [1] is 1.84 µM [rising, partial curve, poor fit]. Same read-out and setting: under `CC(C)c1ccc(C2=CC(c3cccc(Cl)c3)n3c(nc4ccccc43)N2)cc1` (stereo unspecified) stands 35.5 µM [falling, single point]. Still for that read-out and setting: under `C/C(O)=C/c1nc2ccccc2[nH]c1=O` stands 23.1 µM [rising, single point].

In the case of `COc1cccc(CC(=O)OCC(=O)NC2(C#N)CCCC2)c1`, the AC50 under setting [2] was 32.6 µM [falling, partial curve, poor fit].

As for `COc1ccccc1C(=O)N/C(=C\c1ccc2c(c1)OCO2)C(=O)NCCc1nc2ccccc2[nH]1`, the AC50 under setting [1] was 16.4 µM [falling, partial curve]. Still for that read-out and setting: under `C/C(N)=C(/C#N)C(=O)CSc1nc2ccccc2c(=O)n1-c1ccc(C)c(Cl)c1` stands 16.4 µM [falling, single point]; under `O=c1c2cc(Cl)ccc2nc(-c2ccccc2)n1O`, 7.94 µM [falling, partial curve, poor fit]; under `COc1ccc2c(c1)O[C@@H](c1cccc(C(F)(F)F)c1)[C@H](OC(=O)Nc1ccc(OC(F)F)cc1)C2=O`, 14.6 µM [rising, single point]. As to `O=[N+]([O-])c1ccccc1S(=O)(=O)Oc1ccc(C(=S)N2CCOCC2)cc1`, under setting [1], the AC50 was 4.11 µM [rising, single point]. Still for that read-out and setting: under `CC(C)N1C/C(=C/c2cccnc2)C(=O)/C(=C/c2cccnc2)C1` stands 20.6 µM [falling, single point]; under `CC(C)(C)SCCNS(=O)(=O)c1ccc2ccccc2c1`, 11.6 µM [rising, partial curve, poor fit]. As for `CCOC(=O)c1csc(NC(=O)C2CCCCC2)n1`, the half-maximal activity concentration (AC50) runs as follows: under setting [1], 14.6 µM [falling, single point]; under setting [2], 5.17 µM [rising, full curve, poor fit].

With `Cc1ccc(S(=O)(=O)N(CC(=O)N/N=C/c2ccco2)c2cc(Cl)cc(Cl)c2)cc1`, the concentration at half-maximal activity (AC50) is, setting by setting: under setting [1], 2.06 µM [falling, partial curve, poor fit]; under setting [2], 23.1 µM [rising, partial curve, poor fit]. Consider `C[C@H](CO)N1C[C@H](C)[C@@H](CN(C)Cc2ccccc2)Oc2ccc(NC(=O)Cn3cnnn3)cc2C1=O`, for which the AC50 under setting [1] was 32.6 µM [rising, partial curve, poor fit]. The same measure, in the same setting: as for `OCCNc1nc(-c2ccccc2)c2ccccc2n1`, the figure is 7.08 µM [rising, partial curve, poor fit]; as for `CCc1ccc2[nH]c(=O)c(CN(CCN(CC)CC)C(=S)NCc3ccco3)cc2c1`, 3.98 µM [falling, partial curve, poor fit]. Same read-out and setting: as for `CCCS(=O)(=O)Nc1ccc2cn[nH]c2c1`, the figure is 25.1 µM [falling, single point]. `CCN(CC)S(=O)(=O)c1cccc(C(=O)Nc2ccc3c(c2)OCO3)c1`: the AC50 under setting [1] is 1.41 µM [falling, partial curve, poor fit].

With `CN=c1scc(-c2ccco2)n1/N=C/c1ccc(O)c(O)c1`, under setting [1], the half-maximal activity concentration (AC50) was 35.5 µM [falling, single point]. Still for that read-out and setting: as for `C=C(C)C(=O)Oc1ccc(N2C(=O)[C@@H]3C4C=CC(C4)[C@@H]3C2=O)cc1`, the figure is 35.5 µM [falling, single point]; as for `O=C(c1ccc(CS(=O)(=O)c2ccc(Br)cc2)o1)N1CCCC1`, 0.517 µM [falling, full curve]; as for `O=C(NCc1ccccc1)C1CCN(C(=O)NCc2ccccc2)CC1`, 5.62 µM [rising, single point]. With `CC(=O)CCS(=O)(=O)c1ccc(NC(C)=O)cc1`, the AC50 under setting [1] was 18.4 µM [falling, single point]. The same measure, in the same setting: under `O=C1NN=C(c2ccccc2)CC1c1c[nH]c2ccccc12` (stereo unspecified) stands 2.24 µM [falling, full curve, poor fit]; under `C[C@H]1COC(=O)[C@@H](Cc2ccc(F)cc2)C/C=C\C[C@@H](CC(=O)NCCO)C(=O)N1`, 6.51 µM [falling, single point]. With `N#C/C(=C\c1ccc(O)cc1)c1nc2ccccc2o1`, the AC50 under setting [1] is 35.5 µM [falling, single point]. Still for that read-out and setting: as for `Clc1cccc(Cl)c1/C=C/c1ccn[nH]1`, the figure is 22.4 µM [rising, partial curve, poor fit]. With `OC(c1ccccc1)c1nc2ccccc2[nH]1` (stereo unspecified), under setting [1], the AC50 is 11.2 µM [rising, partial curve]. With `O=C(COC(=O)c1c2c(nc3ccccc13)/C(=C/c1cccc([N+](=O)[O-])c1)CCC2)NC1CCS(=O)(=O)C1` (stereo unspecified), the half-maximal activity concentration (AC50) under setting [2] was 20.6 µM [rising, partial curve, poor fit]. For the compound `O=C(Nc1cccc(-c2nc3ncccc3o2)c1)c1sc2cc(Cl)ccc2c1Cl`, under setting [1], the concentration at half-maximal activity (AC50) is 10 µM [rising, partial curve]. Take `COc1ccc(C=O)cc1OS(=O)(=O)c1ccc(NC(C)=O)cc1`: the AC50 under setting [2] was 11.6 µM [falling, partial curve]. For `CC(OC(=O)C1CC1)C(=O)Nc1ccc([N+](=O)[O-])cc1Cl` (stereo unspecified), under setting [1], the AC50 was 35.5 µM [rising, partial curve, poor fit]. Still for that read-out and setting: under `COc1ccc(S(=O)(=O)Nc2nc3ccccc3s2)cc1` stands 29.1 µM [rising, single point]; under `Cc1cc(C)cc(NC(=O)N2CCNC(=O)C2CC(=O)Nc2cc(Cl)ccc2Cl)c1` (stereo unspecified), 35.5 µM [falling, single point]; under `CC(C)(C)N(Cc1cc2ccccc2[nH]c1=O)C(=O)C1CCCCC1`, 6.51 µM [falling, single point].

Regarding `CCOC(=O)Nc1nc(-c2ccccc2)c(C(=O)c2ccc(Cl)cc2)s1`, the AC50 under setting [1] is 16.4 µM [rising, partial curve]. Regarding `COCCNC(=O)C(c1ccncc1)N(C(=O)Cn1nnc2ccccc21)c1ccc(OC)cc1` (stereo unspecified), the AC50 under setting [1] is 1.84 µM [falling, partial curve, poor fit].

`O=C(Nc1ccc(F)cc1)Nc1cc(S(=O)(=O)N2CCOCC2)ccc1N1CCCC1`: the AC50 under setting [1] was 17.8 µM [rising, single point]. Still for that read-out and setting: as for `N#C/C(=N/O)c1nc(-c2ccc(F)cc2)cs1`, the figure is 3.66 µM [rising, full curve, poor fit]; as for `Cn1c(=O)oc2cc(S(=O)(=O)Nc3ccc4c(c3)OCO4)ccc21`, 15.8 µM [falling, single point]; as for `Cc1c(C)c(C)c(CN2CCCC2)c(C)c1C`, 3.16 µM [rising, full curve, poor fit]. Same read-out and setting: under `COC(=O)CC1COc2ccccc2N1S(=O)(=O)c1ccc(OC)cc1` (stereo unspecified) stands 25.1 µM [rising, single point]. For `Cc1cccn2c(=O)c3cc(C#N)c(=NC(=O)c4ccco4)n(Cc4ccco4)c3nc12`, the AC50 runs as follows: under setting [1], 1.58 µM [falling, partial curve, poor fit]; under setting [2], 2.51 µM [rising, full curve, poor fit]. As for `O=C(/C=C/c1ccccc1)NC1CCSC1=O` (stereo unspecified), under setting [1], the AC50 is 18.4 µM [falling, single point]. Still for that read-out and setting: under `O=C(CSc1ccsc1[N+](=O)[O-])Nc1cc(F)ccc1F` stands 0.794 µM [falling, full curve, poor fit]; under `O=C(CSc1nnnn1C1CCCC1)N1CCCc2ccccc21`, 18.4 µM [rising, partial curve, poor fit].

As to `Cc1nc(NC(=O)CSC2=NCCS2)sc1C(=O)N(C)C`, the AC50 under setting [1] is 7.94 µM [rising, full curve, poor fit]. The same measure, in the same setting: under `Cc1ccc(OCC(=O)Nc2ccc(-c3nc4ncccc4o3)cc2)c(C)c1` stands 6.51 µM [rising, partial curve, poor fit]; under `CCC(=O)Nc1ccc2c(c1)nc1n2CCSC1`, 22.4 µM [rising, partial curve, poor fit]. On the same count and under the same terms, under `CCCc1c(C)nc2ccccc2c1SCCC#N` stands 25.9 µM [falling, single point]. With `NC(=S)N=Nc1c(O)n(CCCl)c2ccc(Br)cc12`, the AC50 runs as follows: under setting [1], 14.1 µM [rising, partial curve, poor fit]; under setting [2], 7.08 µM [falling, partial curve].

Take `Fc1ccc(COc2ccc(-c3nnco3)cc2)cc1`: the AC50 under setting [1] is 0.631 µM [rising, full curve, poor fit].
